Reference: PubChem BioAssay AID254 (DTP/NCI, 2004)
The list does not hold the whole screen: it gathers tests that were run many times, whatever their T/C, doses with no T/C, and many T/C values between a quarter and a half above the control. Other doses and runs of a compound stand elsewhere. T/C: endpoint of the treated group in % of that of the vehicle group. Some entries give survivors of the animals treated and no T/C: the source holds a T/C of zero for them, seemingly a mark for toxic or unscored doses. Some survivor counts are full or nearly so, which does not show that the dose was tolerated: survival well below the control is almost never listed, so the zero probably covers shortened survival too. Counts of survivors are from the toxicity check (mostly the fifth day) where no day follows; animals may have died later. Schedules are NCI's codes, read here as Q, the interval in days (D) or hours (H), X, the number of doses. Some doses were run more than once; the values are given in rising order. For survival time, the PubChem record calls one and a half times the control and up active, and a quarter to a half above the control has no call in these data; cut-offs in other NCI protocols can differ. Brackets with × stand for listed records that agree. Some T/C values are followed by the survivors on the day toxicity was checked, most often the fifth; without a count, all were alive then.

System: L1210 leukemia iv in BDF1 mice, survival T/C
Assay: NCI In Vivo Anticancer Drug Screen. Data for tumor model L1210 Leukemia (intravenous) in B6D2F1 (BDF1) mice
Conditions: higher T/C = longer survival
Experimental: The antitumor activity of compounds was measured in mice bearing transplantable tumors. Survival or tumor size were measured and the results are expressed as the measurement made in the treated group (T) divided by the measurement made in the vehicle treated control group (C). The tumor model used in this assay is L1210 Leukemia (intravenous) in B6D2F1 (BDF1) mice

## O=NN(CCCl)C(=O)N[C@H]1CCCC[C@@H]1Cl
T/C endpoint: mean survival time, dose: 10.0 mg/kg/injection, schedule: Q01DX001 (ip), vehicle: other
  T/C: 130 and 143 % of control
T/C endpoint: mean survival time, dose: 10.0 mg/kg/injection, schedule: Q04DX004 (ip), vehicle: other
  T/C: 131 % of control
T/C endpoint: mean survival time, dose: 15.0 mg/kg/injection, schedule: Q01DX001 (ip), vehicle: other
  T/C: 147 % of control
T/C endpoint: mean survival time, dose: 20.0 mg/kg/injection, schedule: Q01DX001 (ip), vehicle: other, evaluated on day 45
  T/C: 161, 179, 192, 193, 195 % of control
T/C endpoint: mean survival time, dose: 20.0 mg/kg/injection, schedule: Q01DX001 (ip), vehicle: other, evaluated on day 60
  T/C: 284 % of control
T/C endpoint: mean survival time, dose: 60.0 mg/kg/injection, schedule: Q01DX001 (ip), vehicle: other, evaluated on day 45
  T/C: 562, 623, 668 % of control
T/C endpoint: mean survival time, dose: 60.0 mg/kg/injection, schedule: Q01DX001 (ip), vehicle: other, evaluated on day 60
  T/C: 221 and 871 % of control

## O=NN(CCCl)C(=O)NC1CCC(=O)NC1=O (stereo not given)
T/C endpoint: mean survival time, dose: 2.1 mg/kg/injection, schedule: Q01DX001 (ip), vehicle: other
  T/C: 127 % of control (2×)

## COc1cccc2c1C(=O)c1c(O)c3c(c(O)c1C2=O)CC(O)(C(=O)CO)CC3OC1CC(N)C(O)C(C)O1 (stereo not given)
T/C endpoint: mean survival time, dose: 2.5 mg/kg/injection, schedule: Q01DX005 (iv), vehicle: saline
  T/C: 128 % of control [8 of 9 alive]
T/C endpoint: mean survival time, dose: 6.0 mg/kg/injection, schedule: Q01DX005 (iv), vehicle: saline
  survivor count: 9 of 9
T/C endpoint: mean survival time, dose: 7.0 mg/kg/injection, schedule: Q01DX005 (iv), vehicle: saline
  survivor count: 8 of 9

## O=NN(CCCl)C(=O)NC1CCC(NC(=O)N(CCCl)N=O)CC1 (stereo not given)
T/C endpoint: mean survival time, dose: 20.0 mg/kg/injection, schedule: Q01DX001 (ip), vehicle: saline with Tween-80
  T/C: 140 % of control
T/C endpoint: mean survival time, dose: 30.0 mg/kg/injection, schedule: Q01DX001 (ip), vehicle: saline with Tween-80
  T/C: 134 and 138 % of control
T/C endpoint: mean survival time, dose: 38.0 mg/kg/injection, schedule: Q01DX001 (oral), vehicle: other
  T/C: 131 % of control
T/C endpoint: mean survival time, dose: 44.0 mg/kg/injection, schedule: Q01DX001 (ip), vehicle: saline with Tween-80
  T/C: 146 % of control

## COc1cccc2c1C(=O)c1c(O)c3c(c(O)c1C2=O)C[C@@](O)(C(C)=O)C[C@@H]3OC1CC(N)C(O)C(C)O1 (stereo not given in full)
T/C endpoint: mean survival time, dose: 8.4 mg/kg/injection, schedule: Q04DX003 (iv), vehicle: water, evaluated on day 5
  T/C: 134 % of control
T/C endpoint: mean survival time, dose: 8.4 mg/kg/injection, schedule: Q04DX003 (iv), vehicle: water, evaluated on day 60
  T/C: 134 % of control
T/C endpoint: mean survival time, dose: 15.0 mg/kg/injection, schedule: Q01DX001 (iv), vehicle: saline, evaluated on day 5
  T/C: 135 % of control
T/C endpoint: mean survival time, dose: 15.0 mg/kg/injection, schedule: Q01DX001 (iv), vehicle: saline, evaluated on day 45
  T/C: 135 % of control
T/C endpoint: mean survival time, dose: 23.0 mg/kg/injection, schedule: Q04DX003 (iv), vehicle: water
  survivor count: 7 of 8

## CCCCc1ccc2nc(NC(=O)OC)[nH]c2c1
T/C endpoint: median survival time, dose: 75.0 mg/kg/injection, schedule: Q04DX003 (iv), vehicle: saline with Tween-80
  survivor count: 1 of 7
T/C endpoint: median survival time, dose: 100.0 mg/kg/injection, schedule: Q04DX003 (iv), vehicle: saline with Tween-80
  survivor count: 0 of 7
T/C endpoint: median survival time, dose: 150.0 mg/kg/injection, schedule: Q04DX003 (iv), vehicle: saline with Tween-80
  survivor count: 0 of 7

## O=c1[nH]c(=O)n(C2CC(O)C(CO)O2)cc1F (stereo not given)
T/C endpoint: mean survival time, dose: 500.0 mg/kg/injection, schedule: Q01DX001 (ip), vehicle: saline
  T/C: 138 % of control

## CCCCCCCCCCCCCCCC(=O)OCC1OC(n2ccc(N)nc2=O)C(O)C1O (stereo not given)
T/C endpoint: mean survival time, dose: 5.0 mg/kg/injection, schedule: Q01DX005 (ip), vehicle: other
  T/C: 125 % of control
T/C endpoint: mean survival time, dose: 10.0 mg/kg/injection, schedule: Q01DX005 (ip), vehicle: other
  T/C: 136 and 143 % of control
T/C endpoint: mean survival time, dose: 15.0 mg/kg/injection, schedule: Q01DX005 (ip), vehicle: other
  T/C: 148 and 149 % of control
T/C endpoint: mean survival time, dose: 25.0 mg/kg/injection, schedule: Q01DX001 (ip), vehicle: other
  T/C: 113, 138, 158, 192 % of control
T/C endpoint: mean survival time, dose: 50.0 mg/kg/injection, schedule: Q01DX001 (ip), vehicle: other
  T/C: 153, 159, 183, 196 % of control
T/C endpoint: mean survival time, dose: 100.0 mg/kg/injection, schedule: Q01DX001 (ip), vehicle: other
  T/C: 211, 220, 256, 287 % of control
T/C endpoint: mean survival time, dose: 150.0 mg/kg/injection, schedule: Q01DX001 (ip), vehicle: other
  T/C: 194, 280, 338, 345 % of control
T/C endpoint: mean survival time, dose: 200.0 mg/kg/injection, schedule: Q01DX001 (ip), vehicle: other
  T/C: 237, 275 (2×), 307 % of control
T/C endpoint: mean survival time, dose: 250.0 mg/kg/injection, schedule: Q01DX001 (ip), vehicle: other
  T/C: 124, 192, 240, 246 % of control

## CN(C)/N=N/c1nc[nH]c1C(N)=O
T/C endpoint: mean survival time, dose: 165.0 mg/kg/injection, schedule: Q01DX001 (ip), vehicle: carboxymethylcellulose (CMC), evaluated on day 3
  T/C: 99 and 103 % of control
T/C endpoint: mean survival time, dose: 165.0 mg/kg/injection, schedule: Q01DX001 (ip), vehicle: carboxymethylcellulose (CMC), evaluated on day 60
  T/C: 100 and 104 % of control
T/C endpoint: mean survival time, dose: 270.0 mg/kg/injection, schedule: Q01DX001 (ip), vehicle: carboxymethylcellulose (CMC), evaluated on day 3
  T/C: 125 % of control
T/C endpoint: mean survival time, dose: 270.0 mg/kg/injection, schedule: Q01DX001 (ip), vehicle: carboxymethylcellulose (CMC), evaluated on day 60
  T/C: 125 % of control
T/C endpoint: mean survival time, dose: 337.0 mg/kg/injection, schedule: Q01DX001 (ip), vehicle: carboxymethylcellulose (CMC), evaluated on day 3
  T/C: 116, 123, 125 % of control
T/C endpoint: mean survival time, dose: 337.0 mg/kg/injection, schedule: Q01DX001 (ip), vehicle: carboxymethylcellulose (CMC), evaluated on day 60
  T/C: 116, 124, 125 % of control
T/C endpoint: mean survival time, dose: 400.0 mg/kg/injection, schedule: Q01DX001 (ip), vehicle: carboxymethylcellulose (CMC), evaluated on day 3
  T/C: 147 % of control
T/C endpoint: mean survival time, dose: 400.0 mg/kg/injection, schedule: Q01DX001 (ip), vehicle: carboxymethylcellulose (CMC), evaluated on day 60
  T/C: 147 % of control
T/C endpoint: mean survival time, dose: 506.0 mg/kg/injection, schedule: Q01DX001 (ip), vehicle: carboxymethylcellulose (CMC), evaluated on day 3
  T/C: 123, 137, 142 % of control
T/C endpoint: mean survival time, dose: 506.0 mg/kg/injection, schedule: Q01DX001 (ip), vehicle: carboxymethylcellulose (CMC), evaluated on day 60
  T/C: 123, 138, 142 % of control
T/C endpoint: mean survival time, dose: 675.0 mg/kg/injection, schedule: Q01DX001 (ip), vehicle: carboxymethylcellulose (CMC), evaluated on day 3
  T/C: 122, 147, 174 % of control
T/C endpoint: mean survival time, dose: 675.0 mg/kg/injection, schedule: Q01DX001 (ip), vehicle: carboxymethylcellulose (CMC), evaluated on day 60
  T/C: 122, 148, 174 % of control
T/C endpoint: mean survival time, dose: 844.0 mg/kg/injection, schedule: Q01DX001 (ip), vehicle: carboxymethylcellulose (CMC), evaluated on day 3
  T/C: 163, 167, 175 % of control
T/C endpoint: mean survival time, dose: 844.0 mg/kg/injection, schedule: Q01DX001 (ip), vehicle: carboxymethylcellulose (CMC), evaluated on day 60
  T/C: 164, 167, 175 % of control
T/C endpoint: mean survival time, dose: 1350.0 mg/kg/injection, schedule: Q01DX001 (ip), vehicle: carboxymethylcellulose (CMC)
  survivor count: 5 of 10

## O=NN(CCF)C(=O)NC1CCS(=O)(=O)CC1
T/C endpoint: mean survival time, dose: 2.9 mg/kg/injection, schedule: Q01DX001 (ip), vehicle: other
  T/C: 135 and 138 % of control
T/C endpoint: mean survival time, dose: 80.0 mg/kg/injection, schedule: Q01DX001 (oral), vehicle: other
  survivor count: 0 of 9 and 4 of 10
